From US9468209B2, “Method for eradicating weeds with derivatives of 3-acetyl-5-sec-butyl-4-hydroxy-3-pyrrolin-2-one” (priority 2012, dated 2016)
For some of these results: The name of at least one read-out is uncertain. Some results were stated once for a whole list of compounds, not compound by compound.

Legend:
Assay type in all cases: biochemical
[1] = test system: fluorescence of chlorophyll; assay: Fluorescence of chlorophyll of treated Crofton weed leaves; conditions: 50 μg/mL, strong light 12 hours
Method: (§1) Compounds 10-57 were dissolved in small amount of methanol. The solutions were then diluted with distilled water to a concentration of 50 μg/mL. A mixture of methanol and water in the same ratio as the sample solution was also prepared and used as control in the experiment. The healthy leaves of Crofton weed were washed in water for 30 minutes and then rinsed with distilled water. The clean and tissue dried leaves were placed in petri dish with the back-side of the leaves facing up. Wet filter paper was also placed in the in petri dish for moisture control. Water, methanol and chemical solutions of the analogues were applied to the back-side of each leaf. Test sample was then placed in vacuum chamber at 25° C. for 15 min followed by exposure to the strong light (400 μM m^−2 s^−1) for 12 hours. The leaf sample went through a series of test, and the Hill reaction rate, the electron transfer activity and fluorescence of chlorophyll were measured. Four leaves were used for each treatment and each test was repeated three times.

photosystem I = assay: Electron transfer of photosystem I in treated Crofton weed leaves; conditions: 50 μg/mL
photosystem II = assay: PSII oxygen evolution / electron transfer activity of treated Crofton weed leaves; conditions: 50 μg/mL
Method: as §1

Hill reaction = Hill reaction activity of treated Crofton weed leaves; conditions: 50 μg/mL
Method: as §1

| Compound | The t1/2 of fluorescence rise [1] | effect in photosystem I (photosystem I) | effect on electron transfer of photosystem II (in words) (photosystem II) | effect on Hill reaction (in words) (Hill reaction) |
| --- | --- | --- | --- | --- |
| CCC(C)C1NC(=O)CC1=O (stereo not shown) [Compound 1] | 1.184 s |  |  |  |
| CCCC(Cl)C1NC(=O)CC1=O (stereo not shown) [Compound 2] | 1.055 s |  |  |  |
| CCC(C)C1NC(=O)C=C1O (stereo not shown) [Compound 3] | 1.172 s |  |  |  |
| CCC1=C(O)C(C(C)CC)NC1=O (stereo not shown) [Compound 4] | 0.791 s |  |  |  |
| CCOC1=C(O)C(C(C)CC)NC1=O (stereo not shown) [Compound 5] | 0.826 s |  |  |  |
| CCC(C)C1NC(=O)C(CCc2ccccc2)=C1O (stereo not shown) [Compound 6] | 0.773 s |  |  |  |
| CCC(C)C1NC(=O)C(NCCCCl)=C1O (stereo not shown) [Compound 8] | 0.725 s |  |  |  |
| CCC(=O)NC1=C(O)C(C(C)CC)NC1=O (stereo not shown) [Compound 9] | 0.733 s |  |  |  |
| CC(=O)C1=C(O)CNC1=O [Compound 10] | 1.176 s | no effect | inhibit the electron transfer of photosystem II | can slow the Hill reaction |
| CC(=O)C1=C(O)C(C)NC1=O (stereo not shown) [Compound 11] | 1.181 s | no effect | inhibit the electron transfer of photosystem II | can slow the Hill reaction |
| CCC1NC(=O)C(C(C)=O)=C1O (stereo not shown) [Compound 12] | 0.925 s | no effect | inhibit the electron transfer of photosystem II | can slow the Hill reaction |
| CCCC1NC(=O)C(C(C)=O)=C1O (stereo not shown) [Compound 13] | 1 s | no effect | inhibit the electron transfer of photosystem II | can slow the Hill reaction |
| CCCCC1NC(=O)C(C(C)=O)=C1O (stereo not shown) [Compound 14] | 0.91 s | no effect | inhibit the electron transfer of photosystem II | can slow the Hill reaction |
| CCCCCC1NC(=O)C(C(C)=O)=C1O (stereo not shown) [Compound 15] | 0.946 s | no effect | inhibit the electron transfer of photosystem II | can slow the Hill reaction |
| CCCCCCC1NC(=O)C(C(C)=O)=C1O (stereo not shown) [Compound 16] | 0.88 s | no effect | inhibit the electron transfer of photosystem II | can slow the Hill reaction |
| CCCCCCCC1NC(=O)C(C(C)=O)=C1O (stereo not shown) [Compound 17] | 0.917 s | no effect | inhibit the electron transfer of photosystem II | can slow the Hill reaction |
| CCCCCCCCC1NC(=O)C(C(C)=O)=C1O (stereo not shown) [Compound 18] | 0.913 s | no effect | inhibit the electron transfer of photosystem II | can slow the Hill reaction |
| CC(=O)C1=C(O)C(Cc2ccccc2)NC1=O (stereo not shown) [Compound 19] | 0.962 s | no effect | inhibit the electron transfer of photosystem II | can slow the Hill reaction |
| CCCC(c1ccccc1)C1NC(=O)C(C(C)=O)=C1O (stereo not shown) [Compound 20] | 0.876 s | no effect | inhibit the electron transfer of photosystem II | can slow the Hill reaction |
| CC=CC1NC(=O)C(C(C)=O)=C1O (stereo not shown) [Compound 21] | 0.879 s | no effect | inhibit the electron transfer of photosystem II | can slow the Hill reaction |

| Compound | The t1/2 of fluorescence rise [1] | effect in photosystem I (photosystem I) | effect on electron transfer of photosystem II (in words) (photosystem II) | effect on Hill reaction (in words) (Hill reaction) |
| --- | --- | --- | --- | --- |
| CC(=O)C1=C(O)C(C)(C)NC1=O [Compound 22] | 0.828 s | no effect | inhibit the electron transfer of photosystem II | can slow the Hill reaction |
| CCC1(CC)NC(=O)C(C(C)=O)=C1O [Compound 23] | 0.855 s | no effect | inhibit the electron transfer of photosystem II | can slow the Hill reaction |
| CCC1(C)NC(=O)C(C(C)=O)=C1O (stereo not shown) [Compound 24] | 0.921 s | no effect | inhibit the electron transfer of photosystem II | can slow the Hill reaction |
| CCCC1(CCC)NC(=O)C(C(C)=O)=C1O [Compound 25] | 1.197 s | no effect | inhibit the electron transfer of photosystem II | can slow the Hill reaction |
| CCCC1(C)NC(=O)C(C(C)=O)=C1O (stereo not shown) [Compound 26] | 1.211 s | no effect | inhibit the electron transfer of photosystem II | can slow the Hill reaction |
| CCCC1(CC)NC(=O)C(C(C)=O)=C1O (stereo not shown) [Compound 27] | 1.232 s | no effect | inhibit the electron transfer of photosystem II | can slow the Hill reaction |
| CCCCC1(CCCC)NC(=O)C(C(C)=O)=C1O [Compound 28] | 1.124 s | no effect | inhibit the electron transfer of photosystem II | can slow the Hill reaction |
| CCCCC1(C)NC(=O)C(C(C)=O)=C1O (stereo not shown) [Compound 29] |  | no effect | inhibit the electron transfer of photosystem II | can slow the Hill reaction |
| CCCCC1(CC)NC(=O)C(C(C)=O)=C1O (stereo not shown) [Compound 30] | 0.747 s | no effect | inhibit the electron transfer of photosystem II | can slow the Hill reaction |
| CCCC(C)C1NC(=O)C(C(C)=O)=C1O (stereo not shown) [Compound 31] |  | no effect | inhibit the electron transfer of photosystem II | can slow the Hill reaction |
| CCC(C)(C)C1NC(=O)C(C(C)=O)=C1O (stereo not shown) [Compound 32] | 0.905 s | no effect | inhibit the electron transfer of photosystem II | can slow the Hill reaction |
| CC(=O)C1=C(O)C(CCC(C)C)NC1=O (stereo not shown) [Compound 33] | 0.791 s | no effect | inhibit the electron transfer of photosystem II | can slow the Hill reaction |
| CC(=O)C1=C(O)C(CC(=O)O)NC1=O (stereo not shown) [Compound 34] | 0.922 s | no effect | inhibit the electron transfer of photosystem II | can slow the Hill reaction |
| CC(=O)C1=C(O)C(CCC(=O)O)NC1=O (stereo not shown) [Compound 35] |  | no effect | inhibit the electron transfer of photosystem II | can slow the Hill reaction |
| CC(=O)C1=C(O)C(CC(N)=O)NC1=O (stereo not shown) [Compound 36] |  | no effect | inhibit the electron transfer of photosystem II | can slow the Hill reaction |
| CC(=O)C1=C(O)C(CCC(N)=O)NC1=O (stereo not shown) [Compound 37] |  | no effect | inhibit the electron transfer of photosystem II | can slow the Hill reaction |
| CCC(=O)C1=C(O)C(C(C)CC)NC1=O (stereo not shown) [Compound 42] |  | no effect | inhibit the electron transfer of photosystem II | can slow the Hill reaction |
| CCC(C)C1NC(=O)C(C(=O)CCc2cc(Cl)cc(Cl)c2)=C1O (stereo not shown) [Compound 48] |  | no effect | inhibit the electron transfer of photosystem II | can slow the Hill reaction |
| CCC(C)C1NC(=O)C(C(=O)NCc2ccccc2)=C1O (stereo not shown) [Compound 49] |  | no effect | inhibit the electron transfer of photosystem II | can slow the Hill reaction |
